# No constants are given. Whether binding was seen depends on the method and setting. Some entries that bind do so weakly or less than the wild type. Sequences can lack the tags named with a protein.
# T1: human LDB1(56–285), tags removed (human) (UniProt Q86U70)
# T1 sequence: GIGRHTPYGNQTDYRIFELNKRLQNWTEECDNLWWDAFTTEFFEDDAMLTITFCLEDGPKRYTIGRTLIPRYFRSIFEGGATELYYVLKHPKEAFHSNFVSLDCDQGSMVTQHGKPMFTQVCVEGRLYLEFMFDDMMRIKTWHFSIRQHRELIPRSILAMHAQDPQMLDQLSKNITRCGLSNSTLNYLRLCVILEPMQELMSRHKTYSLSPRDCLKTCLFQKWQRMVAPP
# Biological target: T1, human LDB1(56–285), tags removed (human)
# Assay: crystal structure; Pygo2(58–84) peptide incubated with LDB1-SSBP2 (co-expressed, co-purified) at 5:1; hanging drop, 100 mM Li2SO4, 100 mM sodium citrate pH 5.6, 1% PEG400, 10 mM DTT, microseeding; 2.45 Å; both purified
binder,measurement,value
"human SSBP2(1–94), tag removed (domain or fragment, UniProt P81877 1-94, looked up, chain of the crystallised complex; not shown: His, N-terminal, cleaved) MYGKGKSNSSAVPSDSQAREKLALYVYEYLLHVGAQKSAQTFLSEIRWEKNITLGEPPGFLHSWWCVFWDLYCAAPERRETCEHSSEAKAFHDY",binding,binds
